These results are taken from article PMC8773632.

Amino acid sequences for entries named in this document (tags omitted).
UniProt P51587: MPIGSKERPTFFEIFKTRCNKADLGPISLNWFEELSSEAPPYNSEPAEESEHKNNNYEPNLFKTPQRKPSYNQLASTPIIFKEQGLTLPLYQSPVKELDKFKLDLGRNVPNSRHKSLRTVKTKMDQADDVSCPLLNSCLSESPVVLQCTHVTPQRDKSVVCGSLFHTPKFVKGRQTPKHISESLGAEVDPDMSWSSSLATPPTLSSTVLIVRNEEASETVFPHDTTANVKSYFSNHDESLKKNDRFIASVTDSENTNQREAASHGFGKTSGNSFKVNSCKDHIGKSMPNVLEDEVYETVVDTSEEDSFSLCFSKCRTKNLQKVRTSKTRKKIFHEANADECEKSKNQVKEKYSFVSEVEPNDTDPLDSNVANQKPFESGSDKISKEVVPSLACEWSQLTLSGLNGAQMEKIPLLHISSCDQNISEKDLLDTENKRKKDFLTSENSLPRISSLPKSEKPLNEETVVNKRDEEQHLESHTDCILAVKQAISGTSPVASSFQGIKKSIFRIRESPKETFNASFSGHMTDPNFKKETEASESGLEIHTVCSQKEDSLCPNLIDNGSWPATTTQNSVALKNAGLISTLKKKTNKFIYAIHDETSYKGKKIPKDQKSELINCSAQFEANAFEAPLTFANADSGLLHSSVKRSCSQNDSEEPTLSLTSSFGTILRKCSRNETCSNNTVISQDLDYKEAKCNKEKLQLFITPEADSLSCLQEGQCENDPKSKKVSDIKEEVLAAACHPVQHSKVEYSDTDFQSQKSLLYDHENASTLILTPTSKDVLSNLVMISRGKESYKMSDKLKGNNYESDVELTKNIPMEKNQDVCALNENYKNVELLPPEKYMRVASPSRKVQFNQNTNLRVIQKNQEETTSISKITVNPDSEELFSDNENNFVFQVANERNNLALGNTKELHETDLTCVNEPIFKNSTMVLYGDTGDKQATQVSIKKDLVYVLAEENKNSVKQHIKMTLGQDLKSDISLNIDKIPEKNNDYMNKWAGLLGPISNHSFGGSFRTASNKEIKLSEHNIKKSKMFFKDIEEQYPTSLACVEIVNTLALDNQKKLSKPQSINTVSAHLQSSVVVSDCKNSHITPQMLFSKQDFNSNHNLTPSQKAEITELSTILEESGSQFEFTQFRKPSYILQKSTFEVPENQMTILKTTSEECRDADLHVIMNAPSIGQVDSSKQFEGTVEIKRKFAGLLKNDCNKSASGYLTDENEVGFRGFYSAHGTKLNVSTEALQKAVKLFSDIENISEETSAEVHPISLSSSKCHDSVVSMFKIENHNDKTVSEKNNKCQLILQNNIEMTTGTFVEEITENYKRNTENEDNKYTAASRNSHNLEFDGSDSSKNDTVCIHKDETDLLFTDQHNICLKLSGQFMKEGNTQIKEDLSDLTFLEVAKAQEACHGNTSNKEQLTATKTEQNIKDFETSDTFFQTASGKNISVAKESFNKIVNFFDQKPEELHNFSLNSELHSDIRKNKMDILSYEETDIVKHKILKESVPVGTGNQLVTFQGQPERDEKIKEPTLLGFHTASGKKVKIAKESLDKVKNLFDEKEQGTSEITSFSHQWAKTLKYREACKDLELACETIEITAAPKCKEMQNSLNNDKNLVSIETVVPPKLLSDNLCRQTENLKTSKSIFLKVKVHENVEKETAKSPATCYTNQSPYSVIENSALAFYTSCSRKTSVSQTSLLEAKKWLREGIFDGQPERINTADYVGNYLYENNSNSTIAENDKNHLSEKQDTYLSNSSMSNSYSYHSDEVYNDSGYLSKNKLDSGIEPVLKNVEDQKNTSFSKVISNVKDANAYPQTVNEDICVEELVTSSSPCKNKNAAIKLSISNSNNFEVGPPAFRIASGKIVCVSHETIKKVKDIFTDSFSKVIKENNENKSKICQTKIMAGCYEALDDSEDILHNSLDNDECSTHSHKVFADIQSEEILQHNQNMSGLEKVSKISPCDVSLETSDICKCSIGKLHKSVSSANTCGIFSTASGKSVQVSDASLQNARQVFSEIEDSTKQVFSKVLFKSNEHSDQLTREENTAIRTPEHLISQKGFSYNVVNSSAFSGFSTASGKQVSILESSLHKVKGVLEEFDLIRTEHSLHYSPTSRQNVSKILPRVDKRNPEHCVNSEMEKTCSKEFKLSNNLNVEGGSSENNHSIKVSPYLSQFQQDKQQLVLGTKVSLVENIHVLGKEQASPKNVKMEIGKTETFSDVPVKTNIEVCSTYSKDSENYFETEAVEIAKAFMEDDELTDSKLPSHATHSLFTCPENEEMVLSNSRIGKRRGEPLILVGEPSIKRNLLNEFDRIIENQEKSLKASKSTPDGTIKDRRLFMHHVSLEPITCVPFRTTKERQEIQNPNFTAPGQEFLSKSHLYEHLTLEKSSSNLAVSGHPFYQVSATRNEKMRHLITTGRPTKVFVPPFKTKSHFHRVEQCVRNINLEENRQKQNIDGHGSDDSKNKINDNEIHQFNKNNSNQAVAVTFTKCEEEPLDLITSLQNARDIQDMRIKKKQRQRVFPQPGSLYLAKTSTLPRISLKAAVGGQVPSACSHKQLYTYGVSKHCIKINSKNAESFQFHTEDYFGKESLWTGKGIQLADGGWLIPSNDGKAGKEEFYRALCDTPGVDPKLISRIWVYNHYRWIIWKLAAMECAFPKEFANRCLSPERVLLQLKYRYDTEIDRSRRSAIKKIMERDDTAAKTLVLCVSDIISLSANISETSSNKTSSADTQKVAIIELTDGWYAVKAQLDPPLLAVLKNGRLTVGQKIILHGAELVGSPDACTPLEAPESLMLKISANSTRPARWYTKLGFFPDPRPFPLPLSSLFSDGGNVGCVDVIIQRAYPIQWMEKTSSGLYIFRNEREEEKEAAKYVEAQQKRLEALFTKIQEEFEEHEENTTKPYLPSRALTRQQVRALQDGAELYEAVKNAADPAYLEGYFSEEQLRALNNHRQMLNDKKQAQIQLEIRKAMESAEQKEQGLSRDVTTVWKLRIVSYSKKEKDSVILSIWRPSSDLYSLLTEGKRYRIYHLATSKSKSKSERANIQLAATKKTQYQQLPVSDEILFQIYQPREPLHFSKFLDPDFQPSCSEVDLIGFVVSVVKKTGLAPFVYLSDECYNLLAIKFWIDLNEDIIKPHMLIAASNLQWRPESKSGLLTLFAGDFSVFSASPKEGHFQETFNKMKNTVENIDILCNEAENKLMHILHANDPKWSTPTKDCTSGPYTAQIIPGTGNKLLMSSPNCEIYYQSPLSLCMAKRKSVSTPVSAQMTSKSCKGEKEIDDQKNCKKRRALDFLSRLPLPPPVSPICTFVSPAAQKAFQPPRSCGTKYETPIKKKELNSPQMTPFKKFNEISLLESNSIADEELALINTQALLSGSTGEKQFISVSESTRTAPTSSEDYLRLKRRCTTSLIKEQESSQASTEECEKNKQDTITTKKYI

The target in assay [1] is Flag-tagged BRCA2 (UniProt P51587). Briefly: condition: only cells left untreated (not synchronized in the S-phase); co-IP; HEK 293T cells expressing Flag-BRCA2, left untreated (not synchronised); IP with anti-Flag M2 antibody, immunoblot with CDK5RAP3 antibody. (In western blotting, separated proteins are transferred to a membrane and probed.)
Assay [2] concerns the target BRCA2, endogenous in HEK 293T cells (human (endogenous in HEK 293T)) (UniProt P51587). As to the kind of experiment: condition: only cells left untreated (not synchronized in the S-phase); co-IP; untransfected HEK 293T cells left untreated (not synchronised); IP with anti-BRCA2 antibody, immunoblot with CDK5RAP3 antibody.
Assay [3] shares this target. As to the kind of experiment: co-IP; untransfected HEK 293T cells synchronized to S-phase with 2 mM hydroxyurea for 18 h; IP with anti-BRCA2 antibody, immunoblot with CDK5RAP3 antibody.
Assay [4] concerns the target Flag-tagged BRCA2 (UniProt P51587). As to the kind of experiment: co-IP; HEK 293T cells expressing Flag-BRCA2, double thymidine block (10 mM) followed by a 9 h release to enrich S-phase cells; IP with anti-Flag M2 antibody, immunoblot with CDK5RAP3 antibody.

Results are given in words; binding and its absence hold for the method and conditions named. In cells and extracts the contact can be indirect. Some entries that bind do so weakly or less than the wild type.

B1: CDK5RAP3, endogenous in HEK 293T cells (protein, UniProt Q96JB5 1-506)
chain: MEDHQHVPIDIQTSKLLDWLVDRRHCSLKWQSLVLTIREKINAAIQDMPESEEIAQLLSGSYIHYFHCLRILDLLKGTEASTKNIFGRYSSQRMKDWQEIIALYEKDNTYLVELSSLLVRNVNYEIPSLKKQIAKCQQLQQEYSRKEEECQAGAAEMREQFYHSCKQYGITGENVRGELLALVKDLPSQLAEIGAAAQQSLGEAIDVYQASVGFVCESPTEQVLPMLRFVQKRGNSTVYEWRTGTEPSVVERPHLEELPEQVAEDAIDWGDFGVEAVSEGTDSGISAEAAGIDWGIFPESDSKDPGGDGIDWGDDAVALQITVLEAGTQAPEGVARGPDALTLLEYTETRNQFLDELMELEIFLAQRAVELSEEADVLSVSQFQLAPAILQGQTKEKMVTMVSVLEDLIGKLTSLQLQHLFMILASPRYVDRVTEFLQQKLKQSQLLALKKELMVQKQQEALEEQAALEPKLDLLLEKTKELQKLIEADISKRYSGRPVNLMGTSL
With B1, the binding result is on record as “no binding” with Flag-tagged BRCA2 [1], “no binding” in assay [2], “binds” in assay [3] and “binds” with Flag-tagged BRCA2 [4].
